The source of these data is article PMC12040169 (PLOS Biology, 2025).

The structures appear in SMILES notation. This is one part of the list.

For the assay, the system named is T1, CTL2-GFP (C. trachomatis L2/434/Bu, GFP-expressing).
T1 construct: L2/434/Bu, GFP-expressing
Further details: species or system HeLa; Intracellular C. trachomatis growth in HeLa cells, bulk GFP fluorescence relative to DMSO. The conditions noted are these: bulk GFP, single well; 28.5 h, 10 µM; inhibitor.
`O=C(Nc1cccc2ccccc12)c1ccc(CSCc2ccccc2)cc1` [CBK263759]: the “% of control remaining” value is 107.291%.

In the case of `Cc1ccn(-c2ccc(N3CCOC4(CCCC4)C3)nn2)n1` [CBK305262], the “% of control remaining” value is on record as 102.093%.

Take `Cc1ccc(NC(=O)c2cnccn2)c(C)n1` [CBK200291]: the “% of control remaining” value is reported as 107.221%.

With `COc1ccc(CCNC(=O)N2CCCC2C(=O)O)cc1` (stereo not shown) [CBK161386], the “% of control remaining” value is listed as 131.828%.

On to `COc1ccc(C(O)Cc2nc3ccccc3n2Cc2ccc(Cl)cc2)cc1` (stereo not shown) [CBK262143], for which the “% of control remaining” value amounted to 112.506%.

Take `CC(=O)NCCc1nc2cc(NC(=O)c3ccc([N+](=O)[O-])cc3)ccc2n1C` [CBK268368]: the “% of control remaining” value came out at 112.323%.

In the case of `CS(=O)(=O)N1CCC(C(=O)NC(c2ccc(F)cc2)c2ccccn2)CC1` (stereo not shown) [CBK059696], the “% of control remaining” value was found to be 108.511%.

Turning to `O=c1[nH]c2ccccc2n1CCCN1CCC(Oc2cncc(OCC3COc4ccccc4O3)n2)C1` (stereo not shown) [CBK084380], the “% of control remaining” value turned out to be 115.022%.

As for `COc1cccc(C(=O)N2CCC(NC(=O)Cc3ccc(F)cc3)CC2)c1` [CBK155027], the “% of control remaining” value is recorded as 111.489%.

Turning to `Cc1cccc2c1OCC[C@@H]2Oc1cncc(N2CCNCC2)n1` [CBK172310G], the “% of control remaining” value turned out to be 110.764%.

`Cc1nn(-c2ccccn2)c(C)c1[C@@H]1C=C[C@@H](NC(=O)CCC(=O)O)C1` [CBK289170]: the “% of control remaining” value came to 115.898%.

On to `O=C(NCc1c(OC(=O)c2cccc([N+](=O)[O-])c2)ccc2ccccc12)c1ccccc1` [CBK260919], for which the “% of control remaining” value was determined as 102.622%.

As to `Cc1c(Cc2ccccc2)c(N2CCN(C3c4ccccc4-c4ccccc43)CC2)n2c(nc3ccccc32)c1C#N` [CBK263124], the “% of control remaining” value came to 109.612%.

Regarding `O=CN1CCc2c([nH]c3cc(F)ccc23)C12CCN(CCc1ccc3c(c1)OCO3)CC2` [CBK039614], the “% of control remaining” value came to 72.5747%.

On to `CC(C)c1ccc(S(=O)(=O)Nc2cccc(SC(F)(F)F)c2)cc1` [CBK044581], for which the “% of control remaining” value is listed as 39.5459%.

As for `Cc1ccc2n1CCN(C(=O)c1cc(-c3ccccn3)n[nH]1)C2C(C)C` (stereo not shown) [CBK282447], the “% of control remaining” value is recorded as 132.834%.

With `CS(=O)(=O)N[C@H]1CO[C@H]2[C@@H]1OC[C@@H]2Nc1nccc(-c2ccco2)n1` [CBK289525], the “% of control remaining” value is given as 130.249%.

Take `Cc1cc(C2(C(F)(F)F)C=C3c4ccccc4CC(C)(C)N3C2=O)cc(C)c1O` (stereo not shown) [CBK017463]: the “% of control remaining” value was 86.4434%.

Take `CCCS(=O)(=O)Nc1nccnc1-c1cccs1` [CBK050763]: the “% of control remaining” value is 147.606%.

`COCCn1cc(C(=O)N2CCCC2c2cc(C)on2)c2ccccc21` (stereo not shown) [CBK305289]: the “% of control remaining” value is 138.345%.

Turning to `FC(F)(F)c1cccc(Sc2cccs2)n1` [CBK115242], the “% of control remaining” value is reported as 100%.

As for `COC[C@H]1CCCN1C(=O)CC[C@H]1CNC(=O)[C@@H]2[C@@H](CCN2C(C)C)N1C` [CBK289038], the “% of control remaining” value was found to be 103.245%.

`CCc1cccc2c(CN3CCc4c(nc(C)[nH]c4=O)C3)c[nH]c12` [CBK283993]: the “% of control remaining” value was found to be 113.582%.

For `CC(C)(c1ccc(Oc2cccc(N)c2)cc1)c1ccc(Oc2cccc(N)c2)cc1` [CBK260958], the “% of control remaining” value is listed as 76.8976%.

Regarding `O=C(O)CN1C(=O)C(O)=C(C(=O)c2ccc(Cl)cc2)C1c1ccccc1[N+](=O)[O-]` (stereo not shown) [CBK263794], the “% of control remaining” value worked out at 100%.

Take `CCC1(c2ccccc2)OCC(C2CCCCN2)O1` (stereo not shown) [CBK023284C]: the “% of control remaining” value is reported as 163.901%.

Turning to `CCN(CC(=O)NCc1ccc(F)cc1)C(=O)c1cc(C#N)c[nH]1` [CBK305221], the “% of control remaining” value is recorded as 72.5279%.

On to `CC(C)CN(Cc1cccs1)C(=O)c1cc2n(n1)CCCN(C)C2` [CBK306793], for which the “% of control remaining” value was determined as 117.862%.

As to `COc1cccc(-c2noc(C3CCN(CCc4ccccc4)CC3)n2)c1` [CBK051455], the “% of control remaining” value is listed as 90.25%.

Take `O=C(O)c1cccc(S(=O)(=O)N2CCC(C(=O)O)CC2)c1` [CBK267199]: the “% of control remaining” value came out at 177.936%.

For `Cc1ccc(C(=O)NC(=O)CSc2nc(N)n[nH]2)cc1` [CBK267523], the “% of control remaining” value was 133.784%.

Take `O=C(Nc1nc(-c2cc3ccccc3o2)cs1)c1ccc(F)cc1` [CBK287756]: the “% of control remaining” value amounted to 104.271%.

Consider `COc1cc(C(=S)N2CCN(C)CC2)ccc1OCC(N)=O` [CBK269037], for which the “% of control remaining” value came out at 149.011%.

As for `O=C(O)c1cccc(NS(=O)(=O)c2ccc(CNC(=O)c3ccc(Cl)cc3)s2)c1` [CBK155085], the “% of control remaining” value amounted to 123.81%.

Consider `Cc1ccccc1OC(C)C(=O)Nc1ccccc1C(=O)N1CCOCC1` (stereo not shown) [CBK269753], for which the “% of control remaining” value came to 96.2744%.

`CCOc1cc(/C=N/NC(=O)c2cncc(Br)c2)c(Br)c(Br)c1O` [CBK261386]: the “% of control remaining” value worked out at 100.384%.

Take `CC(C)(CN)CN(Cc1ccccc1C(F)(F)F)C(=O)Nc1c(F)cccc1F` [CBK026822C]: the “% of control remaining” value is recorded as 109.111%.

Take `CC(C)(C)NCC(O)CO/N=C(/c1ccncc1)c1ccc(Br)cc1` (stereo not shown) [CBK023914G]: the “% of control remaining” value stood at 111.817%.

With `CC(=O)Nc1cccc(-c2cn3ccnc3c(N3CCN(C)CC3)n2)c1` [CBK037930], the “% of control remaining” value turned out to be 151.615%.

For `CN1CCOCC(CNC(=O)c2ccc(-c3ccccc3CO)cc2)C1` (stereo not shown) [CBK307601], the “% of control remaining” value is listed as 127.967%.

Consider `Cc1ccn(CCNCc2cc(-c3ccc(Cl)cc3)c[nH]c2=O)n1` [CBK284727], for which the “% of control remaining” value is 107.584%.

For `O=C(c1cccs1)N1C[C@@H]2CCCCN(C3CCOCC3)[C@@H]2C1` [CBK285503], the “% of control remaining” value came to 86.0167%.

For the molecule `CCOc1cc(C#N)cc(I)c1OCC(=O)O` [CBK266326], the “% of control remaining” value was determined as 147.432%.

Take `Cn1c(COc2ccccc2)nnc1SCC(=O)c1cccc([N+](=O)[O-])c1` [CBK268397]: the “% of control remaining” value was 92.675%.

In the case of `COc1cc(/C=N/NC(=O)c2nonc2N)ccc1OC(=O)c1cc(F)c(F)cc1Cl` [CBK262380], the “% of control remaining” value came out at 100%.

On to `C=CCS(=O)(=O)N1CCC(c2nc(C)n3c(C)csc23)CC1` [CBK285251], for which the “% of control remaining” value was found to be 133.592%.

As for `N#Cc1ccccc1OCCO` [CBK001443], the “% of control remaining” value was found to be 119.748%.

On to `CCOC(=O)c1cnc(Nc2nc3ccccc3o2)nc1CSc1ncccn1` [CBK268885], for which the “% of control remaining” value is 152.865%.

With `CS(=O)(=O)c1ccc(-c2c[nH]c([C@@H]3COCCN3Cc3ccccc3)n2)cc1` [CBK289300], the “% of control remaining” value is recorded as 140.289%.

Regarding `CCCC/C=C/c1cnc(N)c(-c2ccc(C(=O)NCCO)cc2)n1` [CBK064141], the “% of control remaining” value was 150.226%.

Take `Cc1cc(NC(=O)c2ccco2)c2ccccc2n1` [CBK116258]: the “% of control remaining” value is listed as 63.085%.

`O=C(NCCCn1ccnc1)c1ncoc1-c1ccccc1` [CBK283887]: the “% of control remaining” value is given as 143.3%.

For `CC(NC(=O)N1CCN(c2ccccc2)CC1)c1ccccc1` (stereo not shown) [CBK155207], the “% of control remaining” value stood at 116.323%.

With `COc1ccc2nc(O)c(CN(c3ccccc3)S(=O)(=O)c3ccccc3)cc2c1` [CBK268093], the “% of control remaining” value is 127.917%.

For the molecule `CC(C)(C)OC(=O)N1CCCC(c2nc3ccccc3cc2N)C1` (stereo not shown) [CBK284711], the “% of control remaining” value was determined as 129.048%.

Take `CC(C)C(=O)Nc1ccc(-c2ccccc2)c2ccccc12` [CBK083731]: the “% of control remaining” value came to 64.1519%.

As to `O=S(=O)(c1ccc(F)cc1)N1CCCC1c1cccc(Cc2ccccc2)n1` (stereo not shown) [CBK286231], the “% of control remaining” value was 109.206%.

Consider `O=C(O)/C=N/NC(=O)c1ccco1` [CBK260923], for which the “% of control remaining” value was determined as 110.571%.

On to `CCCNc1nc(-c2ccc(SC)cc2)cn2ccnc12` [CBK066619], for which the “% of control remaining” value amounted to 170.663%.

On to `CCOC(=O)c1ncoc1-c1ccc(Cl)cc1Cl` [CBK020578], for which the “% of control remaining” value came to 118.555%.

For the molecule `C=CCNC(=O)Cn1cccc2cc(-c3ccc(OC)cc3)nc1-2` [CBK285348], the “% of control remaining” value amounted to 153.034%.

`Cc1cc(C)n(CC(C)CNC(=O)NCCN2CCCCCC2=O)n1` (stereo not shown) [CBK305389]: the “% of control remaining” value turned out to be 136.609%.

In the case of `Cc1csc(NC(=O)CN2CCOC(c3ccc(F)cc3)C2)n1` (stereo not shown) [CBK304703], the “% of control remaining” value is recorded as 99.1816%.

In the case of `COC(=O)c1c(NC(=O)CSc2nc[nH]n2)sc2c1CCCC2` [CBK267222], the “% of control remaining” value was 156.64%.

As to `CSc1ncc(Cl)c(C(=O)Nc2ccc(S(=O)(=O)N3CCOCC3)cc2)n1` [CBK268775], the “% of control remaining” value is 118.448%.

In the case of `Cc1ccc(-c2cc(=O)c3cc(OCC(=O)Nc4sc5c(c4C#N)CCCC5)ccc3o2)cc1` [CBK269062], the “% of control remaining” value is 161.302%.

For `Cc1cc(NS(=O)(=O)c2ccc(Cl)c([N+](=O)[O-])c2)n(C)n1` [CBK067259], the “% of control remaining” value was 125.171%.

`CN(CC(=O)Nc1cnc(-c2ccc(F)cc2)c(-c2ccco2)n1)S(=O)(=O)c1ccccc1` [CBK037214]: the “% of control remaining” value is listed as 190.602%.

Turning to `COCCNC(=O)c1cnn2c(C)c(Cc3cccc(C#N)c3)c(C)nc12` [CBK162096], the “% of control remaining” value is 117.895%.

As for `Cc1noc(NS(=O)(=O)c2ccc(NC(=O)CCN3C(=O)c4ccccc4C3=O)cc2)c1C` [CBK264091], the “% of control remaining” value came out at 17.0959%.

For the molecule `S=C(NCCc1ccccc1)Nc1ccc2c(c1)OCCO2` [CBK267048], the “% of control remaining” value came out at 105.551%.

Consider `O=C(Cc1ccccc1)N1CCN(c2ncccn2)CC1` [CBK144518], for which the “% of control remaining” value is 105.182%.

Turning to `N#CCCCN1CCC(Oc2cncc(OCc3ccc(Cl)c(Cl)c3)n2)C1` (stereo not shown) [CBK084436], the “% of control remaining” value is reported as 35.9191%.

Take `NCC(O)CNC(=O)c1cc(-c2ccc(Cl)cc2)[nH]n1` (stereo not shown) [CBK160977]: the “% of control remaining” value came out at 100%.

With `O=C(COc1ccc(Br)cc1C(=O)O)NCCc1ccccc1` [CBK286796], the “% of control remaining” value came to 119.935%.

Take `Cc1ccccc1NC(=O)Nc1cccc(F)c1` [CBK105831]: the “% of control remaining” value was 117.883%.

Consider `CCn1cc(-c2cncn2CC(C)n2nc(C)cc2C)cn1` (stereo not shown) [CBK281775], for which the “% of control remaining” value stood at 137.293%.

Take `CC(C)(CO)C(O)C(=O)NC1CCCC(C(=O)O)C1` (stereo not shown) [CBK286609]: the “% of control remaining” value turned out to be 114.668%.

Regarding `Cc1cc(NC(=O)c2cc(C)oc2C)no1` [CBK058081], the “% of control remaining” value stood at 114.958%.
